4 targets from the supplement of paper PMC11732987, “Enantioselective OTUD7B fragment discovery through chemoproteomics screening and high-throughput optimisation” (Communications Chemistry, 2025) can be followed below.

Chains of the proteins cited; added tags and fusions are not shown. Lines headed by an entry give the natural chain unless they say otherwise; changes in a name come on top.
UniProt P51991: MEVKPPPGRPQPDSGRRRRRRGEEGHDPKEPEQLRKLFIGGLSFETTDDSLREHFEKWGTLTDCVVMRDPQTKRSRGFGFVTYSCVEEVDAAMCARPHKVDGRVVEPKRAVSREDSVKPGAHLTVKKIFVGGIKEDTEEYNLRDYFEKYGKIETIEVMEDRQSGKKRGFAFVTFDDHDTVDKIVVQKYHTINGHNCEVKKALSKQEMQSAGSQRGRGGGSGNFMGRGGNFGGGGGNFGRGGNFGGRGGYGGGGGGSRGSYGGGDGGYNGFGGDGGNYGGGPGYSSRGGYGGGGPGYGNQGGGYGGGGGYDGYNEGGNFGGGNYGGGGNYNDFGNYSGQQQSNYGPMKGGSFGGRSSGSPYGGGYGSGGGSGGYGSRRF
UniProt Q12789: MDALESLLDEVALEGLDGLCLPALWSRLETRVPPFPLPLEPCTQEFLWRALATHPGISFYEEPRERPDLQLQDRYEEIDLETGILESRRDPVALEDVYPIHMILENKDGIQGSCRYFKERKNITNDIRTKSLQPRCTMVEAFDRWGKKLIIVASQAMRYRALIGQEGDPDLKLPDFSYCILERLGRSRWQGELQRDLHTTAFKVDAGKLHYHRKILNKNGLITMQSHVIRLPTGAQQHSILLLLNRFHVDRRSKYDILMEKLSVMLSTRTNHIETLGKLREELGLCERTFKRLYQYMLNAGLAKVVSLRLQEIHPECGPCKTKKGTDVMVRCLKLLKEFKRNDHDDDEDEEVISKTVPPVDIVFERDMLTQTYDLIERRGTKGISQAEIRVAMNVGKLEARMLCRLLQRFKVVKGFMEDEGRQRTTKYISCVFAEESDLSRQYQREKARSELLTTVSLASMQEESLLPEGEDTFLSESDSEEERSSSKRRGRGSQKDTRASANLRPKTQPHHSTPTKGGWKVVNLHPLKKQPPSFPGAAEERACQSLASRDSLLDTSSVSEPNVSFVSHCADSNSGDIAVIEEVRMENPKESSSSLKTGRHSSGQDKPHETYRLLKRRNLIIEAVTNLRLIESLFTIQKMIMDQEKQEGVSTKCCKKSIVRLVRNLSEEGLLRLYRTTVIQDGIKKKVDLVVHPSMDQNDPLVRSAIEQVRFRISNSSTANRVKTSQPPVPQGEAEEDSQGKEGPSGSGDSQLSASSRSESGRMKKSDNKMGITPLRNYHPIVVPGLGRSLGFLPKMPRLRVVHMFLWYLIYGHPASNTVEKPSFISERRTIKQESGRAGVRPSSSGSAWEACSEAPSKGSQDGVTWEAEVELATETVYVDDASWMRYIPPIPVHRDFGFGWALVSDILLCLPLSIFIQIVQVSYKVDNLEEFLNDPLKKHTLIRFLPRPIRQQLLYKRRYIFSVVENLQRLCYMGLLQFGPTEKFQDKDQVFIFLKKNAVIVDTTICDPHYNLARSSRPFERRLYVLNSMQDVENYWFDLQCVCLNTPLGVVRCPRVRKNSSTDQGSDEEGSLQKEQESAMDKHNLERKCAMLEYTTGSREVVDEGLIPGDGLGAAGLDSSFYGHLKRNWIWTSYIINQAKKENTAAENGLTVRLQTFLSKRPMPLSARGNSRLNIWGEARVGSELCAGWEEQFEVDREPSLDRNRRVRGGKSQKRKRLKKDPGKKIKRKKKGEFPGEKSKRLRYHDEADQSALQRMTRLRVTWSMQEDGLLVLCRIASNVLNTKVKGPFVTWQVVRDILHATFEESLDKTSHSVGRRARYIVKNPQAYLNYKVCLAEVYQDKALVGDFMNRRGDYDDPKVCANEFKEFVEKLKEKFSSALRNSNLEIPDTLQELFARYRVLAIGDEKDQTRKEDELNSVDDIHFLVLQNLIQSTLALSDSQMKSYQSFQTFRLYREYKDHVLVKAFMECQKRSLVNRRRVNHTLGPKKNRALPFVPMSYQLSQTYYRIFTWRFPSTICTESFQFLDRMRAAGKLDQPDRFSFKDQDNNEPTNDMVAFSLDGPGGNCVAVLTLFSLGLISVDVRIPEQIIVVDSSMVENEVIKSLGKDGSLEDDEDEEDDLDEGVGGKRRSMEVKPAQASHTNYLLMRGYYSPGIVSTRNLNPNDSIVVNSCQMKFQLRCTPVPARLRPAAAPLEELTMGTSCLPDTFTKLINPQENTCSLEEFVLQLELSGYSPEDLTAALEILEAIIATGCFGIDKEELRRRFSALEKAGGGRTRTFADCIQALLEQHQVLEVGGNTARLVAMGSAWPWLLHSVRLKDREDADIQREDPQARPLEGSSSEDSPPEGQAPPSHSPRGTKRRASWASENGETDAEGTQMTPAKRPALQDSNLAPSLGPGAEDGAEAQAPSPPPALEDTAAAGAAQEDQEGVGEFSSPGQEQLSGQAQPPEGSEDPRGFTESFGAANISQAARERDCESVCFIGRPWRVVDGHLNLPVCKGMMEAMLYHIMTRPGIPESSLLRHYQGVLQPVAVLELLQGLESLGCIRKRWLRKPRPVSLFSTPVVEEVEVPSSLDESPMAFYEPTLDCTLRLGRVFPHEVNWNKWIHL
UniProt Q8IX15: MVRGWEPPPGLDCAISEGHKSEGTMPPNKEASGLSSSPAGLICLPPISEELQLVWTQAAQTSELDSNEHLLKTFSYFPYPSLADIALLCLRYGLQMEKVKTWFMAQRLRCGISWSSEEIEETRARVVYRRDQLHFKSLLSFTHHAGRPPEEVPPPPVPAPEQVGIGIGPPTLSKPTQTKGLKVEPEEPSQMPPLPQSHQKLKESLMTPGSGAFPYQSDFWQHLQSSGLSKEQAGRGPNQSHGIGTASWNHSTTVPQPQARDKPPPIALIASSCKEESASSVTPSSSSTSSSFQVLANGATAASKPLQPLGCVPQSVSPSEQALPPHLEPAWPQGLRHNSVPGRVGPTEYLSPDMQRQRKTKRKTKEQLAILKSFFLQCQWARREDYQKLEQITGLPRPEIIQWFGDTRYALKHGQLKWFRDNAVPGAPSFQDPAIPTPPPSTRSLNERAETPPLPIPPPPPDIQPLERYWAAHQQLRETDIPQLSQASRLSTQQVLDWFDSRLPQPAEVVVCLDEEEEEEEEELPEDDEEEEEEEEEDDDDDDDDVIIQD

Compound in assay [1]: ClCC(=O)N[C@@H]1CCCc2ccccc12
The assay can be described thus: log2 mean competition ratio of IA-DTB cysteine labelling (DMSO/compound) (log2 ratio); higher = stronger cysteine engagement by compound. The conditions noted are these: treatment time: 4 h, cell line lysate: HEK293T. As to the method: (§1)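 IA-DTB competitive cysteine chemoproteomics in HEK293T RIPA lysate. Lysates were treated with compound 29 or 30 at 50 or 200 µM for 4 h, then IA-DTB (500 µM, 1 h), trypsin-digested, NeutrAvidin-enriched and analysed by diaPASEF. Competition ratio = intensity DMSO / intensity compound (n=4 treated, n=64 DMSO); binding: mean log2 CR ≥ 1 and p ≤ 0.05 plus QC filters. Target is the cysteine site.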

Compound in assay [2]: ClCC(=O)N[C@H]1CCCc2ccccc12
The assay is described as above. The note with it: treatment time: 4 h, cell line lysate: HEK293T. As to the method:
as §1

The other results are listed elsewhere or left out. The data scatter; read single values as rough.

As for HNRNPA3 C196 (UniProt P51991), the “log2 mean competition ratio” value in assay [1] (50 µM) is -0.144; in assay [1] (200 µM), -0.125; in assay [2] (50 µM), -0.492; in assay [2] (200 µM) it was -0.271.

As to GTF3C1 C1673 (UniProt Q12789), the “log2 mean competition ratio” value was 0.33 in assay [1] (50 µM), -0.0123 in assay [1] (200 µM), 0.866 in assay [2] (50 µM) and 0.174 in assay [2] (200 µM).

On to HOMEZ C13 (UniProt Q8IX15), for which the “log2 mean competition ratio” value is -0.144 in assay [1] (50 µM), 0.0858 in assay [1] (200 µM), -0.258 in assay [2] (50 µM) and -0.232 in assay [2] (200 µM).

Regarding GTF3C1 C286 (UniProt Q12789), the “log2 mean competition ratio” value in assay [1] (50 µM) is -0.0386; in assay [1] (200 µM), 0.341; in assay [2] (50 µM), -0.0505; in assay [2] (200 µM) it was 0.177.
